The results in this text go back to paper doi:10.1101/2024.09.30.615641.

The assay addresses EGFP-Otub2 (mouse). Description: affinity purification with mass spectrometry.

These are yes or no findings as the source states them, for the method shown. Binding seen in cells or lysates may run through a third protein. These calls come from enrichment with a bait or labelling near it, and not all partners need be listed. Tags and fused reporters may be left off the sequences shown.

B1: voltage-gated potassium channel subunit Kv9.3 (protein, UniProt Q8BQZ8 1-491)
chain: MVFGEFFHRPGQDEELVNLNVGGFKQSVDQSTLLRFPHTRLGKLLTCHSEEAILELCDDYSVADKEYYFDRNPFLFRYVLNFYYTGKLHVMEELCVFSFCQEIEYWGINELFIDSCCSSRYQERKEESHDKDWDQKSNDVSTDSSFEESSLFEKELEKFDELRFGQLRKKIWIRMENPAYCLSAKLIAISSLSVVLASIVAMCVHSMSEFQNEDGEVDDPVLEGVEIACIAWFTGELAIRLVAAPSQKKFWKNPLNIIDFVSIIPFYATLAVDTKEEESEDIENMGKVVQILRLMRIFRILKLARHSVGLRSLGATLRHSYHEVGLLLLFLSVGISIFSVLIYSVEKDEHKSSLTSIPICWWWATISMTTVGYGDTHPVTLAGKIIASTCIICGILVVALPITIIFNKFSKYYQKQKDMEVDQCSEDPPEKCHELPYFNIRDVYAQQVHAFITSLSSIGIVVSDPDSTDASSVEDNEDAYNTASLENCTGK
Take B1: the binding result is “binds”.
